Laboratory results as given in paper PMC4427985.
These are yes or no findings as the source states them, for the method shown. In cells and extracts the contact can be indirect. Some results given as binding are weak or reduced against the parent protein; the word gives no strength. Sequences can lack the tags named with a protein.

Sequences of proteins named here, by UniProt entry; tags and fusion partners are left off.
UniProt P42224: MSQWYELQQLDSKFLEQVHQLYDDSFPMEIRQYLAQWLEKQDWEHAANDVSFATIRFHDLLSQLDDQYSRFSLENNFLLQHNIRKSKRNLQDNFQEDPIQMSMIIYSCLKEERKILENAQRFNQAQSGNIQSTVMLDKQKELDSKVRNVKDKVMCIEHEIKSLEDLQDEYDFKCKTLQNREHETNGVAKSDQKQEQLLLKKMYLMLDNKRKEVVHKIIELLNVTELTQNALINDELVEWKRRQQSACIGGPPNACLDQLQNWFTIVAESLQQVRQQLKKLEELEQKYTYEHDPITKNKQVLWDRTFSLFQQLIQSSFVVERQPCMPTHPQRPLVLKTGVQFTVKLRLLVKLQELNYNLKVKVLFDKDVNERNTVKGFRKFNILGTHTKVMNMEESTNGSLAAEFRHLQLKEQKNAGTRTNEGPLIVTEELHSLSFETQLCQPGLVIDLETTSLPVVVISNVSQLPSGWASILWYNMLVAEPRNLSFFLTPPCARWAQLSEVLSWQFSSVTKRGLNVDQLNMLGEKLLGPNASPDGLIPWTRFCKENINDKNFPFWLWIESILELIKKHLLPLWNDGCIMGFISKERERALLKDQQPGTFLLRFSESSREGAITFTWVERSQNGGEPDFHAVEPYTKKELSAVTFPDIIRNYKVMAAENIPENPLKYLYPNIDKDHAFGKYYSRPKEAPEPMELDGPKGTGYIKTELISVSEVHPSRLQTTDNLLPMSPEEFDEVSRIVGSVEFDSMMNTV

Molecular target: T1, FLAG-tagged DLX4 fused to GFP (UniProt Q92988)
T1 sequence: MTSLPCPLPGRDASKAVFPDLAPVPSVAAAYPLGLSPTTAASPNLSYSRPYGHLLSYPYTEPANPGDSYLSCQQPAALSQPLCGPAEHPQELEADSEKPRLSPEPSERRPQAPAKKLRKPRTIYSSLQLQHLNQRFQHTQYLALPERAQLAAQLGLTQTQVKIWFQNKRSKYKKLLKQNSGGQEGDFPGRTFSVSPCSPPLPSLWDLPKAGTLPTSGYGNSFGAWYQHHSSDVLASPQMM
Assay: co-IP; 2 mg extract of U3A cells (stimulated with IFN-gamma 10 ng/mL for 1 h), pre-cleared with protein G agarose, incubated with FLAG Ab or control Ig in lysis buffer (20 mM Tris-HCl pH 8.0, 100 mM NaCl, 1% Nonidet P-40, 10% glycerol, 2 mM EDTA); immunoprecipitates blotted with Ab to STAT1

Substance: GFP-STAT1 fusion protein (from UniProt P42224 1-750)
- binding: binds
